# Results taken from article doi:10.1101/2020.03.24.006932.
# Sequences of proteins named here, by UniProt entry; tags and fusion partners are left off.
# UniProt P12954: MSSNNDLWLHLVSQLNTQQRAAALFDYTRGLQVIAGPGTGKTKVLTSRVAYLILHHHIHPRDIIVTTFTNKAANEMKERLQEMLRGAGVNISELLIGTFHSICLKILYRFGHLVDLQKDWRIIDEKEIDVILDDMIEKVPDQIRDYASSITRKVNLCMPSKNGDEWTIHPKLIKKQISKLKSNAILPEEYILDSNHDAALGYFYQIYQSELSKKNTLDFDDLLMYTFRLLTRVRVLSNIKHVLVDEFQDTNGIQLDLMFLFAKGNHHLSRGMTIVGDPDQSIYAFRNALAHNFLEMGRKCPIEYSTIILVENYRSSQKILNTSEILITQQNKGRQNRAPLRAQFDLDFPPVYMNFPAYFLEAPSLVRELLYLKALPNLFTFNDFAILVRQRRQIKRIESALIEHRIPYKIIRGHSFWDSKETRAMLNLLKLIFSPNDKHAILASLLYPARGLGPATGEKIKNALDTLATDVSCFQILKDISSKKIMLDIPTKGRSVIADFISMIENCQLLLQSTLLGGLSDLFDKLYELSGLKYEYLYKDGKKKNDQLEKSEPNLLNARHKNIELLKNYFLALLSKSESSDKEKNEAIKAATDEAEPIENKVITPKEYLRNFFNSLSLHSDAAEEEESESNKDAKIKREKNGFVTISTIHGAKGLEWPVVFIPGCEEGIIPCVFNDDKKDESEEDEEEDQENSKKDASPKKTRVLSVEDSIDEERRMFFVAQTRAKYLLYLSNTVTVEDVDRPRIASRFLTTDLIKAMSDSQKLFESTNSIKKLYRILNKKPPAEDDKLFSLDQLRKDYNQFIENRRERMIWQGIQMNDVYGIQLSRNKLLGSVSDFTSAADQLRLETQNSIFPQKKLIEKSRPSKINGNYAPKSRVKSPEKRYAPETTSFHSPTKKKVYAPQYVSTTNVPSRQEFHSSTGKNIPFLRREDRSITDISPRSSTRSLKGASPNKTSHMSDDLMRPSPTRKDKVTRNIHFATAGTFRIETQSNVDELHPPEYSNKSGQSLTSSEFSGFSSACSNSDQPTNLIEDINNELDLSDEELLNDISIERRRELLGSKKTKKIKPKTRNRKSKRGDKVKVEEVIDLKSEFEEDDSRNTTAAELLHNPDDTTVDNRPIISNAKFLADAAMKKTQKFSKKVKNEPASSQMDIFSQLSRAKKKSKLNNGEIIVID
# UniProt P25454: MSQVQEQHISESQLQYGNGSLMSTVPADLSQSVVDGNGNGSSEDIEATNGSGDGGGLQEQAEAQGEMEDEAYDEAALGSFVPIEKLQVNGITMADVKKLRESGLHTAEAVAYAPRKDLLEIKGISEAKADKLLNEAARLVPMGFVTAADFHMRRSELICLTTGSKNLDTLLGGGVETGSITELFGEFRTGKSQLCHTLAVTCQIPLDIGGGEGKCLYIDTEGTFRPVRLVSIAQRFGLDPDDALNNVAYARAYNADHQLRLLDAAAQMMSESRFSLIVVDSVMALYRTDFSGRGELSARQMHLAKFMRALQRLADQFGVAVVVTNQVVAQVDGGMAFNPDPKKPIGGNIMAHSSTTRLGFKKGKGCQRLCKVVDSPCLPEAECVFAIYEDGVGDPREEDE
# No constants are given. Whether binding was seen depends on the method and setting. Some results given as binding are weak or reduced against the parent protein; the word gives no strength.
# Biological target: Srs2 fused with the DNA binding domain of Gal4 (yeast) (UniProt P12954)
# Assay: two-hybrid
substance,measurement,value
Rad51 fused with the transcription activating domain of Gal4 (from UniProt P25454 1-400),binding,binds
